Measured values from the supplement of paper PMC10849652.
The other results are listed elsewhere or left out.

Protein sequences, listed by entry. Tags and fused reporters are not part of them. Lines headed by an entry give the natural chain unless they say otherwise; changes in a name come on top.
UniProt P51659: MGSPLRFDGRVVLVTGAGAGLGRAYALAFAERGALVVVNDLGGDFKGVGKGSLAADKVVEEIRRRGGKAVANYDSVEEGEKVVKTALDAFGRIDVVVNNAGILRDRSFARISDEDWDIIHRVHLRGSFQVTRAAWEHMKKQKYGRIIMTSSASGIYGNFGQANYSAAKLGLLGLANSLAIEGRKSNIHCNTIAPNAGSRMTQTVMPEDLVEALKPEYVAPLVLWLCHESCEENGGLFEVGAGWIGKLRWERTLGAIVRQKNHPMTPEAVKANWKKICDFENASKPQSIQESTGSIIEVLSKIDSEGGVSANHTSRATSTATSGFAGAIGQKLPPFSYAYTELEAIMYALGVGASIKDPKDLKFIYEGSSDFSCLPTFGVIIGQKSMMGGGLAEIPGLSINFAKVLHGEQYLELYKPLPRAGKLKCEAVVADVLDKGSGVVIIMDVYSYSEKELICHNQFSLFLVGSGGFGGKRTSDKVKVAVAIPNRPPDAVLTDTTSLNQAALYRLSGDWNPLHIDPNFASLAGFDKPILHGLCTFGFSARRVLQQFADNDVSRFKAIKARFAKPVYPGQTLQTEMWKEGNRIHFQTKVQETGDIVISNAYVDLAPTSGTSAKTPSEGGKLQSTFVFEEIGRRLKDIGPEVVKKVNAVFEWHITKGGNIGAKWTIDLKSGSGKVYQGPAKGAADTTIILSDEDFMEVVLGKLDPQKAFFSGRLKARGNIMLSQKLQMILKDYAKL
UniProt Q9BUJ2: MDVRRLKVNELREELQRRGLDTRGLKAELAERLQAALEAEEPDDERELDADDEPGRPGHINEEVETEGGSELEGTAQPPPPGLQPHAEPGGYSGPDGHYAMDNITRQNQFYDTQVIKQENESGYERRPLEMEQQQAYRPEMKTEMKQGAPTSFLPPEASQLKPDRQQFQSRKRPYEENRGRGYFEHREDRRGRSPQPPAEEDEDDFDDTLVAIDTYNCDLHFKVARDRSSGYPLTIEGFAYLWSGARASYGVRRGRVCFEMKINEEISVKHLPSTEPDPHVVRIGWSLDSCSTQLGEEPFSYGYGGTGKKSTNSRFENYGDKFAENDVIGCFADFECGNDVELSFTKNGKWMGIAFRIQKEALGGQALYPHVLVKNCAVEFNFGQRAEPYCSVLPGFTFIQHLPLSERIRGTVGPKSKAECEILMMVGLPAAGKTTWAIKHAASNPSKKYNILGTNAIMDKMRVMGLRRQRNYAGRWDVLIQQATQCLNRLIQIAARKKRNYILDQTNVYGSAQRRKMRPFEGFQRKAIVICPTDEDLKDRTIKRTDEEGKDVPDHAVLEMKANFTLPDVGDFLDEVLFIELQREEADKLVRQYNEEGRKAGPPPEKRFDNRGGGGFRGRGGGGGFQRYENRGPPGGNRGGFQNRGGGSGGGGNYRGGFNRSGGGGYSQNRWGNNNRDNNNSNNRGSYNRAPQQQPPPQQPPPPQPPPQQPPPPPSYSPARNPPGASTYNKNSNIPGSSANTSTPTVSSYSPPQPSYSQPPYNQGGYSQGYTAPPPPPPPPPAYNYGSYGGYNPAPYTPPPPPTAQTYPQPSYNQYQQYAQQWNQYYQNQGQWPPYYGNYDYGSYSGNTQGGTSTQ
UniProt Q9NWY4: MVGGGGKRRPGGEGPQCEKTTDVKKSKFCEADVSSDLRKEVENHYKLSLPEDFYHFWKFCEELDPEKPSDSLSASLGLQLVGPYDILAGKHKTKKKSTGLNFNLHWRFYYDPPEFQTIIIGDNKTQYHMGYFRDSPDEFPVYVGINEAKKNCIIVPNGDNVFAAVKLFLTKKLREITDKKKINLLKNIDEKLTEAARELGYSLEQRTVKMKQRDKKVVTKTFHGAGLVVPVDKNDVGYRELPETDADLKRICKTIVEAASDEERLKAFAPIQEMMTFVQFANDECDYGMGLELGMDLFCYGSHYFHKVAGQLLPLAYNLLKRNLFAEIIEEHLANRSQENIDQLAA
UniProt O43390: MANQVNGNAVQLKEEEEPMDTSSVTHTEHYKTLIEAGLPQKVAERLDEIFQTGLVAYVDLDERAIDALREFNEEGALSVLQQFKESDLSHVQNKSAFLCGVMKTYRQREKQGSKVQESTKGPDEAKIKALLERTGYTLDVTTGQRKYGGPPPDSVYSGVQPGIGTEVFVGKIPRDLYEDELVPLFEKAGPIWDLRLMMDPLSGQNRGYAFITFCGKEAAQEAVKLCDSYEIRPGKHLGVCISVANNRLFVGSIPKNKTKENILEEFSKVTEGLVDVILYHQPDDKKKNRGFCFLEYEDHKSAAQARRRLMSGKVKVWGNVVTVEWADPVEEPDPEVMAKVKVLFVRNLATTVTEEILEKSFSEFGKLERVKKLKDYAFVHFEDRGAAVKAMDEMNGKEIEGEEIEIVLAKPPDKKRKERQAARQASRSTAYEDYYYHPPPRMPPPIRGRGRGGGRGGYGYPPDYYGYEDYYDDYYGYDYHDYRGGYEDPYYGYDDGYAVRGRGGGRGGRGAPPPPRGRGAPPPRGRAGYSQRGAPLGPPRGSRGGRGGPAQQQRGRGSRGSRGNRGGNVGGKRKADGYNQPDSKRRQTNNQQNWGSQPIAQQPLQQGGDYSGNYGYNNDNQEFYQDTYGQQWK
UniProt P07910: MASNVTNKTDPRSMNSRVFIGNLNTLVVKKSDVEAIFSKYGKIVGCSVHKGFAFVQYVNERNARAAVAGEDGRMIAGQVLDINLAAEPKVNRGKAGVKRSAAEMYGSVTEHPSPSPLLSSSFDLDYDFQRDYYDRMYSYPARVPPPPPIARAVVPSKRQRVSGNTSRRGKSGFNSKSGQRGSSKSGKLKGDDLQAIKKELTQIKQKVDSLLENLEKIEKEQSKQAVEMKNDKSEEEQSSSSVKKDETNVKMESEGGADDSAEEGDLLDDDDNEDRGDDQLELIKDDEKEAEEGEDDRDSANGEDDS
UniProt Q8WVV9: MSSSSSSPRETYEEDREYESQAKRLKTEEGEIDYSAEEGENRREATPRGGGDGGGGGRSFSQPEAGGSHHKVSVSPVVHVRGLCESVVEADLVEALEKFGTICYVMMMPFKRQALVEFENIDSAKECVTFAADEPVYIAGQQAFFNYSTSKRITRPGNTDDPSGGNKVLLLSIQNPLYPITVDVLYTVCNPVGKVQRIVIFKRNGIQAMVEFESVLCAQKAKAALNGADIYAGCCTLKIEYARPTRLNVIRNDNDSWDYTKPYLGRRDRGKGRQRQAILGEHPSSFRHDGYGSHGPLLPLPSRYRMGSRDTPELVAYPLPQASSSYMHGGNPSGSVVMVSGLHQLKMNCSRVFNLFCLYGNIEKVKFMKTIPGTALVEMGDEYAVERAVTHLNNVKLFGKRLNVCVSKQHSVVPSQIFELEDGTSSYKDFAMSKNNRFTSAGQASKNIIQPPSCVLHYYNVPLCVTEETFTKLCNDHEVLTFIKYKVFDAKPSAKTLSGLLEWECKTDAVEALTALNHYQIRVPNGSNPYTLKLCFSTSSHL
UniProt Q14103: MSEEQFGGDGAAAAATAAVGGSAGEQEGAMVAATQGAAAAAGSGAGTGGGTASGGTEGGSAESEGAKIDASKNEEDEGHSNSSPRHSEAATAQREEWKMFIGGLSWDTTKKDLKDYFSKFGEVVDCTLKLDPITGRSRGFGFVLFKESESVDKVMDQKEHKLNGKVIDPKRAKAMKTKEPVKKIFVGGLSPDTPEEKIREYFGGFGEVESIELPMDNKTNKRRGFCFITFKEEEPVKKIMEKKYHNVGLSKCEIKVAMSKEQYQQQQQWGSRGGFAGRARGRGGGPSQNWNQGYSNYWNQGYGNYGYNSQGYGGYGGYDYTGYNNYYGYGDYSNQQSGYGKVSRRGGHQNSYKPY
UniProt Q3SXM5: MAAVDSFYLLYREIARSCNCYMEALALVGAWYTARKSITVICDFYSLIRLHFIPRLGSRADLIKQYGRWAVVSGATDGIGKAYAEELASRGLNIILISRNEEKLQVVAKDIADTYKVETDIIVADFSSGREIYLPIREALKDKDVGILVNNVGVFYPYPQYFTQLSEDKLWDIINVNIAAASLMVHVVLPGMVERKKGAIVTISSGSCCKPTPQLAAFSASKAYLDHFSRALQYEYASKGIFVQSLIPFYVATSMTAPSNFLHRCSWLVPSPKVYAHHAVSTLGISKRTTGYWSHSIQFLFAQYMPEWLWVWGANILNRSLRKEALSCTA
UniProt P26583: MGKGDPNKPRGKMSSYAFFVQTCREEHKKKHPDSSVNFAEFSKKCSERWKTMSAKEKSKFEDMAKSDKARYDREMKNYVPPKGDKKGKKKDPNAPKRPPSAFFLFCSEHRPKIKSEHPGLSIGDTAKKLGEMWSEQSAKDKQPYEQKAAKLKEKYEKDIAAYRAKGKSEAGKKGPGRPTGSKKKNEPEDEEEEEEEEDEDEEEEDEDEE
UniProt Q8IX15: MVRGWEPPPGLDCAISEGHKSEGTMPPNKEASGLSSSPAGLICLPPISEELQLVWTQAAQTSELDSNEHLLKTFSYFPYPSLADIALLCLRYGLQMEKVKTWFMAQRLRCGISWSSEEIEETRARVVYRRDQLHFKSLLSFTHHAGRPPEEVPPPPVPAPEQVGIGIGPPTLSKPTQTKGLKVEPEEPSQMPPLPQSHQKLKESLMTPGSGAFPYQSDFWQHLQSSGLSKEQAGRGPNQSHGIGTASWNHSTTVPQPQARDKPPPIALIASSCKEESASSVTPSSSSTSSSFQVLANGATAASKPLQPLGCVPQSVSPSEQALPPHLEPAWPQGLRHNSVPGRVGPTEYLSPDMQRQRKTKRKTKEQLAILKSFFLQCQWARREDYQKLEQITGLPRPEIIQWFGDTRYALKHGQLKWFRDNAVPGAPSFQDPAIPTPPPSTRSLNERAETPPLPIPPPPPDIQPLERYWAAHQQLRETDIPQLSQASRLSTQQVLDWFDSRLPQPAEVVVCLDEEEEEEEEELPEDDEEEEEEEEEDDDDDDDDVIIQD
UniProt Q96JB3: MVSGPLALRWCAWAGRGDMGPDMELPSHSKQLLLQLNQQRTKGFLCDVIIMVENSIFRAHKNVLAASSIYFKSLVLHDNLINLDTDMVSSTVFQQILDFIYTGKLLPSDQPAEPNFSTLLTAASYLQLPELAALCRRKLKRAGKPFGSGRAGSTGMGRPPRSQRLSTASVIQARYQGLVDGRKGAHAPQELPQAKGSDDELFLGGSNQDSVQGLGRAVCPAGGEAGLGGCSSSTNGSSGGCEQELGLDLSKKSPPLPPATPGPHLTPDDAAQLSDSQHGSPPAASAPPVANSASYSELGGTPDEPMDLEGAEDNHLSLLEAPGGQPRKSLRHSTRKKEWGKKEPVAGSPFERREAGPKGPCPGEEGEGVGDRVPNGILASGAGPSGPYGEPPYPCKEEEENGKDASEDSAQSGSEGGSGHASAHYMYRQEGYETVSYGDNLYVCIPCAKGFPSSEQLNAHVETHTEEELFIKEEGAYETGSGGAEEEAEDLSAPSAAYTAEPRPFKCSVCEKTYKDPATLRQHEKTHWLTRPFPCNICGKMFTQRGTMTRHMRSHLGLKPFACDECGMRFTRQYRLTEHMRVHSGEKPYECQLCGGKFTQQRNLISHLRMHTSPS
UniProt Q96FZ2: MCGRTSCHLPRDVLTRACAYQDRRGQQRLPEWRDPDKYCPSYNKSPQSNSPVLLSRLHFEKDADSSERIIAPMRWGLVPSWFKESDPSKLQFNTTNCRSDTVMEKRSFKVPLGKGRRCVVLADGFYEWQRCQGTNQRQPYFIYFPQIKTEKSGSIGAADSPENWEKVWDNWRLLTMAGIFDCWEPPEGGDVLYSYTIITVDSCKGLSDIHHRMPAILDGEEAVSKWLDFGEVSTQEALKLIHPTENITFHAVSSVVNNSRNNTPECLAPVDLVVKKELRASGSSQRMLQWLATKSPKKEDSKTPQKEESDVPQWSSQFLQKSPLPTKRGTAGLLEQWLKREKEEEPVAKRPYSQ
UniProt Q1KMD3: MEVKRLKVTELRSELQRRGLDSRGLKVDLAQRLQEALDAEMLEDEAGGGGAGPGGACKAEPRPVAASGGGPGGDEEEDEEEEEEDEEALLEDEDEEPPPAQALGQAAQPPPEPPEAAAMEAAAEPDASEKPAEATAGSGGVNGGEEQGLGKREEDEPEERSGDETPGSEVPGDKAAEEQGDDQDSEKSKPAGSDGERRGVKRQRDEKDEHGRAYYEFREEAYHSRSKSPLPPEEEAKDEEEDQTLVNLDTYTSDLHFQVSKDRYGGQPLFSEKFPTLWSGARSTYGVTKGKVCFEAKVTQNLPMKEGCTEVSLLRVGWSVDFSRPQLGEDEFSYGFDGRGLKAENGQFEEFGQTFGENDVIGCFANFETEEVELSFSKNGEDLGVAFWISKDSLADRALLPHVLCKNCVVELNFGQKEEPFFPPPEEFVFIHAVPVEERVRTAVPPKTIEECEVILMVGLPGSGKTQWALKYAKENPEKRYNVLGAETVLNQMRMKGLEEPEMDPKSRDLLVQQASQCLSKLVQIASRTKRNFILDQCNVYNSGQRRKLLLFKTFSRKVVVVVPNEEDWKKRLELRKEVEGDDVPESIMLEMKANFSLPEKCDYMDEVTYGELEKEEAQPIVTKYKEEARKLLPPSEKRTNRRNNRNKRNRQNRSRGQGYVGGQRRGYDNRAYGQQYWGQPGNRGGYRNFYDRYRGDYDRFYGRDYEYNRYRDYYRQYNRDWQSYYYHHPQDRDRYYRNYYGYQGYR

Key:
Test in all cases: log2 fold change, soluble protein after heating vs DMSO (PISA); higher = thermal stabilisation; K562 lysate, 10 uM; active = over 0.2 and 3.5 SD of the protein, either way, in both replicates (recomputed)
[1] = compound: C=CC(=O)N1CCC[C@@H](n2nc(-c3ccc(Oc4ccccc4)cc3)c3c(N)ncnc32)C1 [ibrutinib]
Summary of the method: (§1)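 Quantification was by TMTpro 16plex LC-MS/MS with equalised channel sums, applied to the supernatant after 21,000xg for 90 min. Samples were crude K562 extract at 1 mg/mL protein in PBS pH 7.4 with 1 mM MgCl2, treated with 10 μM compound for 30 min, heated for 3 min across 48°C-58°C, pooled and brought to 0.5% NP-40 at 4°C. Values are log-two fold changes in thermal stability relative to solvent controls, from duplicates.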

[2] = compound: CC(=O)c1cnc2ccc(-c3cc(Cl)c(O)c(Cl)c3)nc2c1N[C@H]1CC[C@H](CN(C)C)CC1
Summary of the method: as §1

[3] = compound: CC(C)(C)Cn1c(N)nc2ccc(-c3[nH]c(C(C)(C)C)nc3-c3ccc(F)cc3)nc21 [ralimetinib]
Summary of the method: as §1

[4] = compound: CC(C)(O)CC(=O)NCCn1ccc2ncnc(Nc3ccc(Oc4cccc(C(F)(F)F)c4)c(Cl)c3)c21
Summary of the method: as §1

[5] = compound: CC(C)C1=C2N=C(C=C(N2N=C1)NCC3=CC=CC=C3)NCCCCCCN
Summary of the method: as §1

[6] = compound: CC1=C(C(CC(=O)N1)C2=CC=C(C=C2)C(F)(F)F)C(=O)NC3=C(C=C4C(=C3)C=NN4)F
Summary of the method: as §1

[7] = compound: CC1=C(C2=C(C=C1)C(=O)C3=CC=CC=C3N2CCCN)C
Summary of the method: as §1

[8] = compound: CC1=C(C=C(C=C1)NC(=O)C2=CC(=CC=C2)C(C)(C)C#N)NC3=CC4=C(C=C3)N=CN(C4=O)C
Summary of the method: as §1

[9] = compound: CC1=C(C=C(C=C1)NC(=O)C2=CC(=CC=C2)N(C)C)NC(=O)C3=CC=C(C=C3)O
Summary of the method: as §1

[10] = compound: CC1=CC=C(C=C1)SC2=C3C=C(SC3=CN=C2)C(=O)N
Summary of the method: as §1

Target	log2 fold change [1]	log2 fold change [2]	log2 fold change [3]	log2 fold change [4]	log2 fold change [5]	log2 fold change [6]	log2 fold change [7]	log2 fold change [8]	log2 fold change [9]	log2 fold change [10]
HSD17B4 (UniProt P51659)	inactive: 0.052	inactive: 0.006	inactive: 0.017	inactive: 0.015	inactive: 0.006	inactive: -0.012	inactive: -0.01	inactive: 0.032	inactive: -0.02	inactive: 0.011
HERC2 (UniProt O95714)	inactive: 0.001	inactive: 0.053	inactive: 0.002	inactive: 0.02	inactive: 0.082	inactive: 0.028	inactive: -0.063	inactive: 0.021	inactive: 0.041	inactive: 0.015
HLCS (UniProt P50747)	inactive: 0.012	inactive: 0.023	inactive: -0.005	inactive: -0.019	inactive: -0.025	inactive: 0.018	inactive: -0.015	inactive: 0.029	inactive: 0.057	inactive: -0.032
HSD17B11 (UniProt Q8NBQ5)	inactive: -0.047	inactive: 0.027	inactive: 0.033	inactive: -0.034	inactive: 0.008	inactive: -0.024	inactive: 0.029	inactive: -0.012	inactive: -0.042	inactive: -0.011
HNRNPUL1 (UniProt Q9BUJ2)	inactive: 0.028	inactive: -0.13	inactive: 0.017	inactive: -0.014	inactive: -0.019	inactive: 0	inactive: -0.012	active: -0.275	inactive: 0	inactive: 0.007
HNRNPK isoform 2 (UniProt P61978)	inactive: 0.013	inactive: -0.01	inactive: -0.026	inactive: 0	inactive: 0.015	inactive: -0.017	inactive: 0.012	inactive: 0.046	inactive: 0.005	inactive: -0.002
HPF1 (UniProt Q9NWY4)	inactive: -0.02	inactive: -0.028	inactive: 0	inactive: 0.069	inactive: -0.018	inactive: -0.001	inactive: 0.022	inactive: -0.017	inactive: -0.007	inactive: 0
HNRNPR isoform 2 (UniProt O43390)	inactive: -0.023	inactive: -0.198	inactive: 0.01	inactive: -0.001	inactive: 0.004	inactive: 0.003	inactive: 0.001	inactive: -0.001	inactive: 0.006	inactive: 0.036
HMGN2 (UniProt P05204)	inactive: -0.045	inactive: 0.021	inactive: -0.034	inactive: -0.017	inactive: 0	inactive: -0.056	inactive: -0.014	inactive: -0.045	inactive: -0.021	inactive: -0.017
HEBP1 (UniProt Q9NRV9)	inactive: 0.014	inactive: -0.011	inactive: -0.033	inactive: -0.052	inactive: -0.086	inactive: -0.051	inactive: -0.045	inactive: -0.016	inactive: -0.022	inactive: -0.027
HNRNPC (UniProt P07910)	inactive: -0.022	inactive: -0.034	inactive: 0.01	inactive: -0.013	inactive: 0.027	inactive: -0.033	inactive: -0.053	inactive: -0.026	inactive: 0.012	inactive: 0.03
HNRNPLL (UniProt Q8WVV9)	inactive: -0.024	inactive: 0.016	inactive: 0.005	inactive: 0.005	inactive: -0.004	inactive: -0.019	inactive: -0.012	inactive: 0.026	inactive: 0.024	inactive: 0.021
HIST2H2BC (UniProt Q6DN03)	inactive: 0.003	inactive: -0.052	inactive: -0.013	inactive: 0.003	inactive: -0.055	inactive: 0.066	inactive: 0.029	inactive: -0.001	inactive: 0.032	inactive: 0.031
HMGCL (UniProt P35914)	inactive: 0.037	inactive: 0.008	inactive: 0.026	inactive: -0.016	inactive: -0.018	inactive: 0.001	inactive: -0.019	inactive: -0.009	inactive: 0.022	inactive: -0.014
HNRNPD isoform 2 (UniProt Q14103)	inactive: 0	inactive: -0.142	inactive: -0.039	inactive: -0.01	inactive: 0.016	inactive: -0.046	inactive: 0.001	inactive: 0.034	inactive: -0.014	inactive: -0.011
HOOK3 (UniProt Q86VS8)	inactive: 0.024	inactive: -0.008	inactive: 0.029	inactive: 0.014	inactive: -0.008	inactive: -0.001	inactive: 0.005	inactive: -0.011	inactive: 0.009	inactive: -0.035
HNRNPF (UniProt P52597)	inactive: -0.018	inactive: 0.007	inactive: -0.059	inactive: -0.032	inactive: 0.003	inactive: 0	inactive: 0.019	inactive: 0.074	inactive: 0.004	inactive: 0.006
HSDL1 (UniProt Q3SXM5)	inactive: -0.028	inactive: 0.006	inactive: -0.021	inactive: -0.025	inactive: 0.011	inactive: 0.06	inactive: 0.002	inactive: 0.012	inactive: -0.011	inactive: 0.032
HMGB2 (UniProt P26583)	inactive: -0.038	inactive: 0.012	inactive: -0.034	inactive: 0.026	inactive: 0.014	inactive: -0.013	inactive: -0.001	inactive: -0.035	inactive: 0.015	inactive: -0.004
HMOX2 (UniProt P30519)	inactive: -0.039	inactive: 0.019	inactive: 0.054	inactive: 0.031	inactive: -0.034	inactive: -0.021	inactive: 0.018	inactive: -0.028	inactive: -0.048	inactive: 0.051
HOMEZ isoform 3 (UniProt Q8IX15)	inactive: 0.011	inactive: -0.118	inactive: 0.068	inactive: -0.067	inactive: 0.058	inactive: 0.044	inactive: -0.042	inactive: 0.016	inactive: -0.015	inactive: -0.007
HELB (UniProt Q8NG08)	inactive: 0.025	inactive: -0.05	inactive: 0.045	inactive: -0.051	inactive: -0.018	inactive: -0.009	inactive: -0.054	inactive: 0.032	inactive: -0.013	inactive: -0.065
HJURP (UniProt Q8NCD3)	inactive: 0	inactive: 0.071	inactive: -0.057	inactive: -0.126	inactive: 0.191	inactive: -0.058	inactive: -0.06	inactive: 0.116	inactive: 0.461	inactive: -0.106
HNRNPH3 (UniProt P31942)	inactive: 0.005	inactive: -0.037	inactive: -0.077	inactive: 0.051	inactive: -0.006	inactive: 0.027	inactive: 0.02	inactive: 0	inactive: -0.096	inactive: 0.012
HIC2 (UniProt Q96JB3)	inactive: 0.073	inactive: -0.027	inactive: 0.001	inactive: -0.011	inactive: 0.06	inactive: -0.031	inactive: -0.029	inactive: 0.02	inactive: -0.006	inactive: -0.037
HSPA4L (UniProt O95757)	inactive: -0.003	inactive: 0.004	inactive: 0.005	inactive: -0.019	inactive: 0.024	inactive: -0.034	inactive: -0.013	inactive: -0.028	inactive: -0.005	inactive: 0.022
HMCES (UniProt Q96FZ2)	inactive: -0.026	inactive: -0.017	inactive: -0.015	inactive: -0.05	inactive: 0.016	inactive: 0.01	inactive: -0.047	inactive: 0.005	inactive: 0.082	inactive: 0.003
HM13 isoform 2 (UniProt Q8TCT9)	inactive: 0.011	inactive: 0.009	inactive: 0.05	inactive: -0.058	inactive: -0.028	inactive: -0.015	inactive: 0.009	inactive: 0.011	inactive: -0.025	inactive: -0.02
HNRNPUL2 (UniProt Q1KMD3)	inactive: -0.019	active: -0.674	inactive: -0.018	inactive: -0.02	inactive: 0.021	inactive: -0.022	inactive: -0.03	inactive: 0.011	inactive: 0.032	inactive: 0

Whole records from above. Order of values: log2 fold change [1] | log2 fold change [2] | log2 fold change [3] | log2 fold change [4] | log2 fold change [5] | log2 fold change [6] | log2 fold change [7] | log2 fold change [8] | log2 fold change [9] | log2 fold change [10]
HMGB2 (UniProt P26583) in the list: inactive: -0.038 | inactive: 0.012 | inactive: -0.034 | inactive: 0.026 | inactive: 0.014 | inactive: -0.013 | inactive: -0.001 | inactive: -0.035 | inactive: 0.015 | inactive: -0.004
HNRNPD isoform 2 (UniProt Q14103) in the list: inactive: 0 | inactive: -0.142 | inactive: -0.039 | inactive: -0.01 | inactive: 0.016 | inactive: -0.046 | inactive: 0.001 | inactive: 0.034 | inactive: -0.014 | inactive: -0.011
